No constants are given. Whether binding was seen depends on the method and setting. Some entries that bind do so weakly or less than the wild type.
Biological target: dog oxytocin (dog)
Test: dot-blot

- binding: binds
B1: monoclonal antibody P26C (antibody, V domains shown)
VH: QIQLVQSGPELKKPGETVKISCKASGYIFTNYGMNWVKQAPGKNLKWMGWINTNTGEPTYAEEFKGRFAFSLETSASIAYLKINNLKNEDTATYFCSRGGLLPLSYWGQGTLVTVSA
VL: DVVMTQTPLSLPVSLGDQASISCRSSQSLVHSNGNTYLHWFLQKPGQSPKLLIYKVSNRFSGVPDRFSGSGSGTDFTLKISRVEAEDLGVYFCSQSTHFPWTFGGGTKLEIK
notes: Mouse (BALB/c) hybridoma antibody; the isotype is stated as IgGk; It was tested as hybridoma supernatant in the ELISA; also called clone P26C; monoclonal antibody of the invention

— patent publication US20230168258A1 (UNIVERSIDAD DE MURCIA, published 2023)
